Test results published in patent publication US11072582B2 (Epics Therapeutics, priority 2009, dated 2021).
At least one structure is not confirmed: it was looked up by name or label, or the drawing left a doubt. Some entries repeat one wording, which the source may state once for all of them.

test system: adipocytes isolated from normal rat; experiment: Lipolysis assay in isolated adipocytes (isoprenaline-induced); type: cell-based; conditions: 30 μM, FIG. 1
Method: Animals are killed by cervical dislocation and epididymal fat pads are removed and digested in collagenase buffer at 37° C./120 rpm for approximately 50 minutes.
After the pre-treatment, Isoprenaline (1 μM) is added to the adipocytes followed by 30 min incubation at 37° C./150 rpm. The reactions are put on ice and the buffer is assayed spectrophotometrically for the production of NADH^+ from glycerol breakdown in reactions catalyzed by glycerol kinase and glycero 1-3-phosphate dehydrogenase and/or Non Esterified Fatty Acid (NEFA). Each data point is investigated in triplicates in two independent experiments.

Compound	inhibition of isoprenaline-induced lipolysis
Cc1ccccc1-c1ccc(C(=O)N2[C@@H](c3ccccc3Cl)CC[C@H]2C(=O)O)cc1 [Compound 2, (2S,5R)-5-(2-chlorophenyl)-1-(2′-methyl-[1,1′-biphenyl]-4-carbonyl)pyrrolidine-2-carboxylic acid]	inhibit isoprenaline-induced lipolysis
O=C(O)[C@@H]1CC[C@H](c2ccccc2Cl)N1C(=O)c1ccc(-c2cccc(F)c2)cc1 [Compound 10, (2S,5R)-5-(2-chlorophenyl)-1-(3′-fluoro-[1,1′-biphenyl]-4-carbonyl)pyrrolidine-2-carboxylic acid]	inhibit isoprenaline-induced lipolysis
COc1cccc(-c2ccc(C(=O)N3[C@@H](c4ccccc4Cl)CC[C@H]3C(=O)O)cc2)c1 [Compound 13, (2S,5R)-5-(2-chlorophenyl)-1-(3′-methoxy-[1,1′-biphenyl]-4-carbonyl)pyrrolidine-2-carboxylic acid]	inhibit isoprenaline-induced lipolysis
O=C(O)[C@@H]1CC[C@H](c2ccccc2Cl)N1C(=O)c1ccc(-c2ccccc2F)cc1 [Compound 4, (2S,5R)-5-(2-chlorophenyl)-1-(2′-fluoro-[1,1′-biphenyl]-4-carbonyl)pyrrolidine-2-carboxylic acid]	inhibit isoprenaline-induced lipolysis
Cc1cccc(-c2ccc(C(=O)N3[C@@H](c4ccccc4Cl)CC[C@H]3C(=O)O)cc2)c1 [Compound 11, (2S,5R)-5-(2-chlorophenyl)-1-(3′-methyl-[1,1′-biphenyl]-4-carbonyl)pyrrolidine-2-carboxylic acid]	inhibit isoprenaline-induced lipolysis
O=C(O)[C@@H]1CC[C@H](c2ccccc2Cl)N1C(=O)c1ccc(-c2ccccc2)cc1 [Compound 8, (2S,5R)-1-([1,1′-biphenyl]-4-carbonyl)-5-(2-chlorophenyl)pyrrolidine-2-carboxylic acid]	inhibit isoprenaline-induced lipolysis
